Some entries share one result that the patent states for a list of compounds.
Target: T1, Full length G2019 human LRRK2 (Homo sapiens, UniProt Q5S007)
T1 construct: purified recombinant Full length Flag-LRRK2 in assay buffer; made in house; host or cells: HEK293 6E cells transduced with BacMam virus (virus generated in Sf9 cells)
Experiment: Full length G2019 human LRRK2 Inhibition Mass Spectrometry assay
Format: biochemical
Details: LRRKtide substrate, RapidFire mass spectrometry
Procedure: a. Full Length G2019 Human LRRK2 Inhibition Mass Spectrometry Assay
This assay for Leucine Rich Repeat Kinase 2 (LRRK2) inhibition is based on the direct measurement of the peptide ‘LRRKtide’ (LRRKtide: RLGRDKYKT*LRQIRQ and “*” refers to the site of phosphorylation.) and phosphorylated ‘LRRKtide’ using a high throughput RapidFire mass spectrometry assay. Inhibitors are compounds that reduce the conversion of LRRKtide to phospho-LRRKtide.
HEK293 6E cells were incubated in a 37° C. incubator with a humidified atmosphere of 5% CO2 on an orbital shaker rotating at 110 rpm. On the day of transduction, the cell viability was higher than 98% and the cell density was in the range of 1×10^6˜1.5×10^6 cells/ml. HEK293 6E cells were centrifuged at 1,000 rpm for 10 min, and then the cells were resuspended in fresh Freestyle 293 expression medium (Invitrogen:12338) with 0.1% F-68 (Invitrogen:24040-032) but without antibiotics (G418) at density of 1×10^6 cells/ml. BacMam virus with Flag-hu LRRK2 (genotypically normal) gene was centrifuged at 40,000 g for 2 hours, then resuspended in fresh Freestyle 293 expression medium. The resuspended virus was added into the cells in at MOI of 10. The cells were incubated in a 37° C. incubator with a humidified atmosphere of 5% CO2 in air on an orbital shaker rotating at 110 rpm. Cultures were harvested at approximately 48 hours post-transduction by centrifugation at 4,000 rpm for 20 min and pellets were frozen for purification.
The suspended cells were lysed by sonication on ice for 30 min (2 secs on/4 sec off, 20% amplitude), and centrifuged at 10,000 rpm for 30 minutes at 4° C. The supernatant was incubated with 1 mL per litre of cell culture of anti-Flag magnetic beads (Sigma-Aldrich: M8823) at 4° C. for 3 hours, then the beads were washed by 5 mL (5 column volume) binding buffer (50 mM Tris pH7.5@ 4C, 500 mM NaCl, 0.5 mM EDTA, 0.1% TritonX-100, 10% glycerol, freshly add 2 mM DTT) for three times. The Flag tagged LRRK2 proteins were eluted by Elution buffer (50 mM Tris pH7.5@ 4C, 500 mM NaCl, 0.5 mM EDTA, 0.1% TritonX-100, 10% glycerol, freshly add 2 mM DTT, 250 ug/ml Flag peptide (Sigma-Aldrich:F3290)) at 4° C. for 2 hours. Flag peptide was removed by Zeba Spin Desalting Columns, 7K MWCO (Thermo-Fisher: 89893) and the buffer of eluted LRRK2 proteins was exchanged into Storage Buffer (50 mM Tris pH7.5@4C, 150 mM NaCl, 0.5 mM EDTA, 0.02% Triton X-100, 2 mM DTT and 50% Glycerol) using Amicon Ultra Centrifugal Filter Units (100 kD) (Merck: UFC910096). Fractions containing LRRK2 proteins were pooled, aliquoted and stored at −80° C. Protein concentration was determined by Bradford protein assay, and protein purity was analyzed by NuPAG Novex 4-12% Bis-Tris Protein Gels (Invitrogen: NP0322BOX). […]

Protein sequences, listed by entry. Tags and fused reporters are not part of them. Chains listed by the source or under a name are the forms on record and can include a tag or linker.
UniProt Q5S007, with tags, fused parts or gaps R50H: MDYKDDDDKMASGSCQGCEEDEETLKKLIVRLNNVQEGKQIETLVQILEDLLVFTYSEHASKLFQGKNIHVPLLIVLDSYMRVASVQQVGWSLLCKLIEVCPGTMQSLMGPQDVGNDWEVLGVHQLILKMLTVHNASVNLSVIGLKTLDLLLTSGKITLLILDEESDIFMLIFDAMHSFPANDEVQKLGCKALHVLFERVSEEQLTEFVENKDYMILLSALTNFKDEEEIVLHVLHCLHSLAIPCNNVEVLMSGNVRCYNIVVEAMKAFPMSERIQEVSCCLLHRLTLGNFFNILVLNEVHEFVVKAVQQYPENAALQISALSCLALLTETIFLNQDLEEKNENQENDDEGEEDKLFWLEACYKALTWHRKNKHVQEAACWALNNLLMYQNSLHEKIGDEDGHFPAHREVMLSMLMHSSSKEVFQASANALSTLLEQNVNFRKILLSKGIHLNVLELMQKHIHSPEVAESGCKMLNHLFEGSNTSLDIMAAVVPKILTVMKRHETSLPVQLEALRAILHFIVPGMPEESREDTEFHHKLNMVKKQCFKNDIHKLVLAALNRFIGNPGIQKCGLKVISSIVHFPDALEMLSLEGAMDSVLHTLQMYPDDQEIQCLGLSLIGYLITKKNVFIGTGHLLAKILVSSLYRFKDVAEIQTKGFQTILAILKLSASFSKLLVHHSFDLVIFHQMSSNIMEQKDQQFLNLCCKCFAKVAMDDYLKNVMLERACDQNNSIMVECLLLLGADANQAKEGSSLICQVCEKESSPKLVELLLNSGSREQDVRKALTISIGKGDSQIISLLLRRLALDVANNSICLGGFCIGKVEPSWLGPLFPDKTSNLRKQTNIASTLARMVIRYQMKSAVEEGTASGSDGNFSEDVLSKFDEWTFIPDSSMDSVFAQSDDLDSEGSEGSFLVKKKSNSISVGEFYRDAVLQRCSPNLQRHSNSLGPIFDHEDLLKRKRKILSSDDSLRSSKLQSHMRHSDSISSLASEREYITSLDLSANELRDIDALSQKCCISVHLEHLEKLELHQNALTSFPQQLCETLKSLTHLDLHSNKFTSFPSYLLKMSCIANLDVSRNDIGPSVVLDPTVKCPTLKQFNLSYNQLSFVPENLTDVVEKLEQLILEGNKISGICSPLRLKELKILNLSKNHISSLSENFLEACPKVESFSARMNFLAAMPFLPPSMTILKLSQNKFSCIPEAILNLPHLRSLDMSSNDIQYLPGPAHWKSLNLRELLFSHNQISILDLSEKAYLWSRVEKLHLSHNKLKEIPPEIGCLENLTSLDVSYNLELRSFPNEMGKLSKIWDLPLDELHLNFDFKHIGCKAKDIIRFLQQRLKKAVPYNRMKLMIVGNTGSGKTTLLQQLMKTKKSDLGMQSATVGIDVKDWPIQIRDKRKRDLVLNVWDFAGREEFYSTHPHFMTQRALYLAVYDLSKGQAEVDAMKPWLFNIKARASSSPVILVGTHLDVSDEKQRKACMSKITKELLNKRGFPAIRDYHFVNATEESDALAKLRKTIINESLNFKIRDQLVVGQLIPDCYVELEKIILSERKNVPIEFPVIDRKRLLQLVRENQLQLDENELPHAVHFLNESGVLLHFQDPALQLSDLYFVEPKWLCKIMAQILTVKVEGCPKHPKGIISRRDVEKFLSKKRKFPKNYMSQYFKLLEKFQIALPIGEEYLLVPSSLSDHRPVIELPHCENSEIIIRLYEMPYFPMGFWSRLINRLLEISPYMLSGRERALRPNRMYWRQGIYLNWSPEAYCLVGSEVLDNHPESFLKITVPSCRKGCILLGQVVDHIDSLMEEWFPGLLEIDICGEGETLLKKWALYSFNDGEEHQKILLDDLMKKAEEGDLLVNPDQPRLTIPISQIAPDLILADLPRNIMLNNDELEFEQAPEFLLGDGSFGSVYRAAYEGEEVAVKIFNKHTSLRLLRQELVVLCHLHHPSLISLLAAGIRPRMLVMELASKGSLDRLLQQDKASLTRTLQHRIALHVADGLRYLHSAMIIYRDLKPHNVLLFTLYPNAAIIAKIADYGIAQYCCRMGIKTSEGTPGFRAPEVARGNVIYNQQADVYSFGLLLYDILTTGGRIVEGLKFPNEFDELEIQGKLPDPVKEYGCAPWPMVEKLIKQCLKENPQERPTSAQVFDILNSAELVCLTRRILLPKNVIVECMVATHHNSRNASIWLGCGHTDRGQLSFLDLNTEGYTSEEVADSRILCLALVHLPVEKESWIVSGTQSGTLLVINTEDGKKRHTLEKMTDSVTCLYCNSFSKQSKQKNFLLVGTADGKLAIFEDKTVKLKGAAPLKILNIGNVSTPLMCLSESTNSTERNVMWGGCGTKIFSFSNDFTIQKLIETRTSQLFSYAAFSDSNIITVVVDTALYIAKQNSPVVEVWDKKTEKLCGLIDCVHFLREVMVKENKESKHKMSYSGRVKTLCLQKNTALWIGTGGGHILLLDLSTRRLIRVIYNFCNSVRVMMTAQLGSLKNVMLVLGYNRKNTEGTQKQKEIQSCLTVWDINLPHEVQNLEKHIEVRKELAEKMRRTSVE

Row | SMILES | pIC50 in the Full length G2019 human LRRK2 Inhibition Mass Spectrometry assay
1 | Cc1nc(N2CCO[C@@H](CO)C2)cc(-n2ncc3cc(C)c(C4CCN(C5CCOC5)CC4F)cc32)n1 (single isomer, unassigned) [Example E101] | ≥ 7.0
2 | Cc1nc(N2CCO[C@H](CO)C2)cc(-n2ncc3cc(C)c(C4CCN(C5CCOC5)CC4F)cc32)n1 (single isomer, unassigned) [Example E103] | ≥ 7.0
3 | Cc1nc(N2CCO[C@H](CO)C2)cc(-n2ncc3cc(C)c(C4CCN(C5CCOC5)CC4F)cc32)n1 (single isomer, unassigned) [Example E104] | ≥ 7.0
4 | Cc1nc(N2CCO[C@H](CO)C2)cc(-n2ncc3cc(C)c(C4CCN(C5CCOC5)CC4F)cc32)n1 (single isomer, unassigned) [Example E105] | ≥ 7.0

Source: US20210130339A1, “COMPOUNDS” (GLAXOSMITHKLINE INTELLECTUAL PROPERTY DEVELOPMENT LIMITED, priority 2017, published 2021)
